In PMC5462538:
Results are given in words; binding and its absence hold for the method and conditions named. In cells and extracts the contact can be indirect. Binding calls can cover weak binding; strength is not graded here. Where a sequence is shown, tags or fusion partners need not be part of it.

Target: T1, mouse TOMT with a C-terminal FLAG tag (TOMT-FLAG) (mouse) (UniProt A1Y9I9)
T1 sequence: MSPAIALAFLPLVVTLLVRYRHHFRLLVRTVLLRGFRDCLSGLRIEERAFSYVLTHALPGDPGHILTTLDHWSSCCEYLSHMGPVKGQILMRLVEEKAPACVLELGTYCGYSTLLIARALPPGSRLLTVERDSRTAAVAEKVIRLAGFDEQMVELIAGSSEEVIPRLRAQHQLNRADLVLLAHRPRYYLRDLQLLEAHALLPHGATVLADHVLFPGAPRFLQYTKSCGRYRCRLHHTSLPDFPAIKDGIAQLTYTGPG
Assay: co-IP; HEK293 cells co-transfected, lysed after 48 hr in CoIP buffer (50 mM HEPES pH 7.5, 50-300 mM NaCl, 1.5 mM MgCl2, 10% glycerol, 1% Triton X-100, 1 mM EDTA); IP 1 hr at 4°C with HA affinity gel (Figure 8A,B,E) or Flag M2 affinity gel (Figure 8C,D), Western blot

- binding: binds
Substance: PCDH15-CD2
